# Some of the results follow.
# Key:
# Assay in all cases: glycan array binding signal (z-score within array); higher = stronger binding
# Conditions in all cases: glycan notation: IUPAC condensed, linker removed
# [1] = biological target: Neu5Ac(a2-3)Gal(b1-4)GlcNAc(b1-2)[Neu5Ac(a2-3)Gal(b1-4)GlcNAc(b1-4)]Man(a1-3)[GlcNAc(b1-4)][Neu5Ac(a2-3)Gal(b1-4)GlcNAc(b1-2)[Neu5Ac(a2-3)Gal(b1-4)GlcNAc(b1-6)]Man(a1-6)]Man(b1-4)GlcNAc(b1-4)GlcNAc
# Summary of the method: (§1)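 Negative Z-scores can be read as non-binding. The Z-score is calculated within each array and then averaged across arrays of one protein sequence at different concentrations or buffers and across linkers. Arrays, 3228 in all, were curated from the Consortium for Functional Glycomics database and kept only where the protein sequence was available.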
# [2] = biological target: Neu5Ac(a2-3)Gal(b1-4)GlcNAc(b1-2)[Neu5Ac(a2-3)Gal(b1-4)GlcNAc(b1-4)]Man(a1-3)[GlcNAc(b1-4)][Neu5Ac(a2-3)Gal(b1-4)GlcNAc(b1-4)Man(a1-6)]Man(b1-4)GlcNAc(b1-4)GlcNAc
# Summary of the method: as §1
# [3] = biological target: Neu5Ac(a2-3)Gal(b1-4)GlcNAc(b1-2)[Neu5Ac(a2-3)Gal(b1-4)GlcNAc(b1-6)]Man(a1-6)[Neu5Ac(a2-3)Gal(b1-4)GlcNAc(b1-2)Man(a1-3)][GlcNAc(b1-4)]Man(b1-4)GlcNAc(b1-4)GlcNAc
# Summary of the method: as §1
# [4] = biological target: Neu5Ac(a2-3)Gal(b1-4)GlcNAc(b1-3)Gal
# Summary of the method: as §1
# [5] = biological target: Neu5Ac(a2-3)Gal(b1-4)GlcNAc(b1-3)Gal(b1-3)GlcNAc
# Summary of the method: as §1
# [6] = biological target: Neu5Ac(a2-3)Gal(b1-4)GlcNAc(b1-3)Gal(b1-4)GlcNAc
# Summary of the method: as §1
# [7] = biological target: Neu5Ac(a2-3)Gal(b1-4)GlcNAc(b1-3)Gal(b1-4)GlcNAc(b1-2)Man(a1-3)[Neu5Ac(a2-3)Gal(b1-4)GlcNAc(b1-3)Gal(b1-4)GlcNAc(b1-2)Man(a1-6)]Man(b1-4)GlcNAc(b1-4)GlcNAc
# Summary of the method: as §1
# [8] = biological target: Neu5Ac(a2-3)Gal(b1-4)GlcNAc(b1-3)Gal(b1-4)GlcNAc(b1-3)Gal(b1-4)GlcNAc
# Summary of the method: as §1
# [9] = biological target: Neu5Ac(a2-3)Gal(b1-4)GlcNAc(b1-3)Gal(b1-4)GlcNAc(b1-3)Gal(b1-4)GlcNAc(b1-2)Man(a1-3)[Neu5Ac(a2-3)Gal(b1-4)GlcNAc(b1-3)Gal(b1-4)GlcNAc(b1-3)Gal(b1-4)GlcNAc(b1-2)Man(a1-6)]GalNAc
# Summary of the method: as §1
# [10] = biological target: Neu5Ac(a2-3)Gal(b1-4)GlcNAc(b1-3)Gal(b1-4)GlcNAc(b1-3)GalNAc
# Summary of the method: as §1
# [11] = biological target: Neu5Ac(a2-3)Gal(b1-4)GlcNAc(b1-3)Gal(b1-4)GlcNAc(b1-3)[Neu5Ac(a2-3)Gal(b1-4)GlcNAc(b1-3)Gal(b1-4)GlcNAc(b1-6)]GalNAc
# Summary of the method: as §1
# [12] = biological target: Neu5Ac(a2-3)Gal(b1-4)GlcNAc(b1-3)Gal(b1-4)GlcNAc(b1-6)[Gal(b1-3)]GalNAc
# Summary of the method: as §1
# [13] = biological target: Neu5Ac(a2-3)Gal(b1-4)GlcNAc(b1-3)Gal(b1-4)[Fuc(a1-3)]GlcNAc
# Summary of the method: as §1
# [14] = biological target: Neu5Ac(a2-3)Gal(b1-4)GlcNAc(b1-3)GalNAc
# Summary of the method: as §1
# [15] = biological target: Neu5Ac(a2-3)Gal(b1-4)GlcNAc(b1-3)[Neu5Ac(a2-3)Gal(b1-4)GlcNAc(b1-6)]GalNAc
# Summary of the method: as §1
# [16] = biological target: Neu5Ac(a2-3)Gal(b1-4)GlcNAc(b1-6)GalNAc
# Summary of the method: as §1
# [17] = biological target: Neu5Ac(a2-3)Gal(b1-4)GlcNAc(b1-6)[Gal(b1-3)]GalNAc
# Summary of the method: as §1
# [18] = biological target: Neu5Ac(a2-3)Gal(b1-4)GlcNAc(b1-6)[Neu5Ac(a2-3)Gal(b1-3)]GalNAc
# Summary of the method: as §1
# [19] = biological target: Neu5Ac(a2-3)Gal(b1-4)GlcNAc6S
# Summary of the method: as §1
# [20] = biological target: Neu5Ac(a2-3)Gal(b1-4)[Fuc(a1-3)]GlcNAc
# Summary of the method: as §1
# [21] = biological target: Neu5Ac(a2-3)Gal(b1-4)[Fuc(a1-3)]GlcNAc(b1-2)Man
# Summary of the method: as §1
# [22] = biological target: Neu5Ac(a2-3)Gal(b1-4)[Fuc(a1-3)]GlcNAc(b1-3)Gal
# Summary of the method: as §1
# [23] = biological target: Neu5Ac(a2-3)Gal(b1-4)[Fuc(a1-3)]GlcNAc(b1-3)Gal(b1-4)GlcNAc
# Summary of the method: as §1
# [24] = biological target: Neu5Ac(a2-3)Gal(b1-4)[Fuc(a1-3)]GlcNAc(b1-3)Gal(b1-4)[Fuc(a1-3)]GlcNAc(b1-3)Gal(b1-4)[Fuc(a1-3)]GlcNAc
# Summary of the method: as §1
# [25] = biological target: Neu5Ac(a2-3)Gal(b1-4)[Fuc(a1-3)]GlcNAc(b1-3)GalNAc
# Summary of the method: as §1
# [26] = biological target: Neu5Ac(a2-3)Gal(b1-4)[Fuc(a1-3)]GlcNAc(b1-6)[Gal(b1-3)]GalNAc
# Summary of the method: as §1
# [27] = biological target: Neu5Ac(a2-3)Gal(b1-4)[Fuc(a1-3)]GlcNAc(b1-6)[Neu5Ac(a2-3)Gal(b1-3)]GalNAc
# Summary of the method: as §1
# [28] = biological target: Neu5Ac(a2-3)Gal(b1-4)[Fuc(a1-3)]GlcNAc6S
# Summary of the method: as §1
# [29] = biological target: Neu5Ac(a2-3)Gal6S(b1-4)GlcNAc
# Summary of the method: as §1
# [30] = biological target: Neu5Ac(a2-3)Gal6S(b1-4)[Fuc(a1-3)]GlcNAc
# Summary of the method: as §1
# Neu5Ac(a2-3)GalNAc = biological target: Neu5Ac(a2-3)GalNAc
# Summary of the method: as §1
# [31] = biological target: Neu5Ac(a2-3)GalNAc(b1-4)GlcNAc
# Summary of the method: as §1
# [32] = biological target: Neu5Ac(a2-3)[GalNAc(b1-4)]Gal(b1-4)Glc
# Summary of the method: as §1
# [33] = biological target: Neu5Ac(a2-3)[GalNAc(b1-4)]Gal(b1-4)GlcNAc
# Summary of the method: as §1
# [34] = biological target: Neu5Ac(a2-3)[GalNAc(b1-4)]Gal(b1-4)GlcNAc(b1-3)GalNAc
# Summary of the method: as §1
# [35] = biological target: Neu5Ac(a2-3)[Neu5Ac(a2-6)]GalNAc
# Summary of the method: as §1
# Neu5Ac(a2-6)Gal = biological target: Neu5Ac(a2-6)Gal
# Summary of the method: as §1
# [36] = biological target: Neu5Ac(a2-6)Gal(b1-3)GlcNAc(b1-3)[Gal(b1-4)GlcNAc(b1-6)]Gal(b1-4)Glc
# Summary of the method: as §1
# Neu5Ac(a2-6)Gal(b1-4)Glc = biological target: Neu5Ac(a2-6)Gal(b1-4)Glc
# Summary of the method: as §1
# [37] = biological target: Neu5Ac(a2-6)Gal(b1-4)GlcNAc
# Summary of the method: as §1
# [38] = biological target: Neu5Ac(a2-6)Gal(b1-4)GlcNAc(b1-2)Man
# Summary of the method: as §1
# [39] = biological target: Neu5Ac(a2-6)Gal(b1-4)GlcNAc(b1-2)Man(a1-3)Man(b1-4)GlcNAc(b1-4)GlcNAc
# Summary of the method: as §1
# [40] = biological target: Neu5Ac(a2-6)Gal(b1-4)GlcNAc(b1-2)Man(a1-3)[Gal(b1-4)GlcNAc(b1-2)Man(a1-6)]Man(b1-4)GlcNAc(b1-4)GlcNAc
# Summary of the method: as §1
# [41] = biological target: Neu5Ac(a2-6)Gal(b1-4)GlcNAc(b1-2)Man(a1-3)[GlcNAc(b1-2)Man(a1-6)]Man(b1-4)GlcNAc(b1-4)GlcNAc
# Summary of the method: as §1
# [42] = biological target: Neu5Ac(a2-6)Gal(b1-4)GlcNAc(b1-2)Man(a1-3)[GlcNAc(b1-4)][Neu5Ac(a2-6)Gal(b1-4)GlcNAc(b1-2)Man(a1-6)]Man(b1-4)GlcNAc(b1-4)GlcNAc
# Summary of the method: as §1
binder,measurement,setting,value
CM2 (Cordyceps militaris) (protein) MEIAEQNVGKSCAIVNLIPPKEGSNIWTAKQVTIARNLPPNRGTGRHQIDWSFGPVKVTGYVDTTNWEIGVTVSIMGIDLGTVYGNLRDGVVLNVDLFLAKGQVRFYLKNGNEVWVHLSVEIRFDGKFEGDYKIITV,glycan array binding signal (z-score),[1],-0.877
same,glycan array binding signal (z-score),[2],0.058
same,glycan array binding signal (z-score),[3],-0.823
same,glycan array binding signal (z-score),[4],-1.46
same,glycan array binding signal (z-score),[5],-0.152
same,glycan array binding signal (z-score),[6],-1.2
same,glycan array binding signal (z-score),[7],1.55
same,glycan array binding signal (z-score),[8],-0.646
same,glycan array binding signal (z-score),[9],1.78
same,glycan array binding signal (z-score),[10],3.11
same,glycan array binding signal (z-score),[11],0.196
same,glycan array binding signal (z-score),[12],-1.25
same,glycan array binding signal (z-score),[13],0.969
same,glycan array binding signal (z-score),[14],-0.471
same,glycan array binding signal (z-score),[15],1.17
same,glycan array binding signal (z-score),[16],0.704
same,glycan array binding signal (z-score),[17],-0.406
same,glycan array binding signal (z-score),[18],-0.229
same,glycan array binding signal (z-score),[19],-0.128
same,glycan array binding signal (z-score),[20],0.203
same,glycan array binding signal (z-score),[21],-1.33
same,glycan array binding signal (z-score),[22],0.036
same,glycan array binding signal (z-score),[23],0.43
same,glycan array binding signal (z-score),[24],0.031
same,glycan array binding signal (z-score),[25],-0.166
same,glycan array binding signal (z-score),[26],-0.121
same,glycan array binding signal (z-score),[27],-0.027
same,glycan array binding signal (z-score),[28],-0.494
same,glycan array binding signal (z-score),[29],-0.419
same,glycan array binding signal (z-score),[30],-0.639
same,glycan array binding signal (z-score),Neu5Ac(a2-3)GalNAc,0.58
same,glycan array binding signal (z-score),[31],0.487
same,glycan array binding signal (z-score),[32],0.858
same,glycan array binding signal (z-score),[33],-0.887
same,glycan array binding signal (z-score),[34],0.919
same,glycan array binding signal (z-score),[35],-0.254
same,glycan array binding signal (z-score),Neu5Ac(a2-6)Gal,1.05
same,glycan array binding signal (z-score),[36],-0.678
same,glycan array binding signal (z-score),Neu5Ac(a2-6)Gal(b1-4)Glc,-1.05
same,glycan array binding signal (z-score),[37],-0.125
same,glycan array binding signal (z-score),[38],2.54
same,glycan array binding signal (z-score),[39],-1.05
same,glycan array binding signal (z-score),[40],-0.596
same,glycan array binding signal (z-score),[41],1.54
same,glycan array binding signal (z-score),[42],-0.495

# Already shown: entries from further up.
binder,measurement,setting,value
CM2 (Cordyceps militaris) (protein) MEIAEQNVGKSCAIVNLIPPKEGSNIWTAKQVTIARNLPPNRGTGRHQIDWSFGPVKVTGYVDTTNWEIGVTVSIMGIDLGTVYGNLRDGVVLNVDLFLAKGQVRFYLKNGNEVWVHLSVEIRFDGKFEGDYKIITV,glycan array binding signal (z-score),[28],-0.494
same,glycan array binding signal (z-score),[29],-0.419
same,glycan array binding signal (z-score),[30],-0.639
